According to publication PMC6057933:
No constants are given. Whether binding was seen depends on the method and setting.

Chains of the proteins cited; added tags and fusions are not shown. Lines headed by an entry give the natural chain unless they say otherwise; changes in a name come on top.
UniProt Q6GPH4: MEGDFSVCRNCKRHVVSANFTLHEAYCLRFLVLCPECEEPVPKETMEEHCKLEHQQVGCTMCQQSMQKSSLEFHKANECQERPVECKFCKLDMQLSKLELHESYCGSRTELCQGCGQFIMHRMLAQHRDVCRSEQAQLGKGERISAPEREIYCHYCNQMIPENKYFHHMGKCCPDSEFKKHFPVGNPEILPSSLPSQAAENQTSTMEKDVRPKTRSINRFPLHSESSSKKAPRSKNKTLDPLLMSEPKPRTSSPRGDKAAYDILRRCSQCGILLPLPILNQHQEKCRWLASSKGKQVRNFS

Target: T1, IRF-1 in the cells of the transfection experiments (human) (UniProt P10914)
T1 sequence: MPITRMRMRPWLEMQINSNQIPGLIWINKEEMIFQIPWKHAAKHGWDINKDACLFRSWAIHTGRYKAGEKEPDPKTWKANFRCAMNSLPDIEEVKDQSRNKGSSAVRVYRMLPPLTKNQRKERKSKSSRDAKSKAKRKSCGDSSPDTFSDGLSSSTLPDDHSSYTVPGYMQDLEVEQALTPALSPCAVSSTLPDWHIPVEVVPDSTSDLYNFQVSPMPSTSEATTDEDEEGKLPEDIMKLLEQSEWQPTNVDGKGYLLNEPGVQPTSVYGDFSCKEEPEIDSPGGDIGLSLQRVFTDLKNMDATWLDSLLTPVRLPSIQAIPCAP
Assay: sequential ChIP; cell lysates precipitated with anti-IRF-1 antibody, the resulting complexes precipitated with anti-XAF1 antibody; PCR of the IRFE region of the PUMA promoter

binding: no binding
Substance: ΔZF6-XAF1 (from UniProt Q6GPH4)
